Values from PubChem BioAssay AID1224828 (NIAID, 2016)

Test: 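Regulators linking TLR4 signalling to p65 nuclear translocation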 (primary screen)
Cells: mouse RAW264.7 G9 macrophage reporter cells (GFP-p65, Tnf promoter-mCherry)
Reagent: siRNA pool against mouse genes, 100 nM
Duration: 2 days siRNA transfection, then 40 min LPS before fixation
Challenge: LPS (Salmonella minnesota R595) at 10 ng/ml
Detection: 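Microscopy ratio of nuclear to perinuclear-ring GFP-p65 signal, scaled to the plate median; gene score is the average of two replicate robust z-scores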
Reading the numbers: p65 translocation robust z-score: higher = more nuclear NF-kappaB p65 after LPS than the plate median; nuclear/cytoplasmic p65 ratio: higher = more nuclear NF-kappaB p65
Active means: 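Active if robust z is above 3.3 (negative regulators) or below -1.56, the Tlr4 control median (positive regulators); activity score 50 or more; control wells not called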
Calls: active = hit (p65 shift raised or lowered); inactive = no clear change
The deposit covers about 17,000 reagents; below is an unselected part. 762 of all reagents (4.5%) were called active. 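Active calls include both raised and lowered p65 entry, mostly lowered; wells with fewer than 50 cells lack a z-score.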 The raw values are shown without normalisation. Reagents against one gene are numbered here. A reagent listed more than once was tested more than once; the source does not tell the runs apart.

Which result is listed for Npr1?
p65 translocation robust z-score: 0.16; nuclear/cytoplasmic p65 ratio, rep 1: 1.77; nuclear/cytoplasmic p65 ratio, rep 2: 1.35; low cell count flag: enough cells to score; Outcome: inactive

What is on record for Npr1?
p65 translocation robust z-score: 0.82; nuclear/cytoplasmic p65 ratio, rep 1: 1.64; nuclear/cytoplasmic p65 ratio, rep 2: 1.69; low cell count flag: enough cells to score; Outcome: inactive

What is on record for Ap4b1 #1?
p65 translocation robust z-score: -0.98; nuclear/cytoplasmic p65 ratio, rep 1: 1.41; nuclear/cytoplasmic p65 ratio, rep 2: 1.42; low cell count flag: enough cells to score; Outcome: inactive

For Ap4b1 #2, how do the results read?
nuclear/cytoplasmic p65 ratio, rep 1: 1.43; nuclear/cytoplasmic p65 ratio, rep 2: 1.35; low cell count flag: fewer than 50 cells per well; well left out of scoring; Outcome: inactive

What is on record for Wbp11?
p65 translocation robust z-score: 1.57; nuclear/cytoplasmic p65 ratio, rep 1: 1.54; nuclear/cytoplasmic p65 ratio, rep 2: 1.4; low cell count flag: enough cells to score; Outcome: inactive

With Slc6a5, what does the deposit list?
p65 translocation robust z-score: 0.39; nuclear/cytoplasmic p65 ratio, rep 1: 1.5; nuclear/cytoplasmic p65 ratio, rep 2: 1.26; low cell count flag: enough cells to score; Outcome: inactive

What is on record for Rpl36al?
nuclear/cytoplasmic p65 ratio, rep 1: 1.32; nuclear/cytoplasmic p65 ratio, rep 2: 1.33; low cell count flag: fewer than 50 cells per well; well left out of scoring; Outcome: inactive

What did the screen give for Dhodh?
p65 translocation robust z-score: 0.68; nuclear/cytoplasmic p65 ratio, rep 1: 1.6; nuclear/cytoplasmic p65 ratio, rep 2: 1.44; low cell count flag: enough cells to score; Outcome: inactive

With Hpn, what does the deposit list?
p65 translocation robust z-score: -0.11; nuclear/cytoplasmic p65 ratio, rep 1: 1.78; nuclear/cytoplasmic p65 ratio, rep 2: 1.39; low cell count flag: enough cells to score; Outcome: inactive

With Dph1, what does the deposit list?
p65 translocation robust z-score: 0.21; nuclear/cytoplasmic p65 ratio, rep 1: 1.54; nuclear/cytoplasmic p65 ratio, rep 2: 1.35; low cell count flag: enough cells to score; Outcome: inactive

For Plekhj1, how do the results read?
p65 translocation robust z-score: -0.27; nuclear/cytoplasmic p65 ratio, rep 1: 1.34; nuclear/cytoplasmic p65 ratio, rep 2: 1.19; low cell count flag: enough cells to score; Outcome: inactive

For Abcg2, what does the deposit list?
p65 translocation robust z-score: -0.36; nuclear/cytoplasmic p65 ratio, rep 1: 1.57; nuclear/cytoplasmic p65 ratio, rep 2: 1.55; low cell count flag: enough cells to score; Outcome: inactive

Which result is listed for A430010J10Rik?
p65 translocation robust z-score: -1.41; nuclear/cytoplasmic p65 ratio, rep 1: 1.28; nuclear/cytoplasmic p65 ratio, rep 2: 1.33; low cell count flag: enough cells to score; Outcome: inactive

With Fez2, what was measured?
p65 translocation robust z-score: 0.73; nuclear/cytoplasmic p65 ratio, rep 1: 1.71; nuclear/cytoplasmic p65 ratio, rep 2: 1.55; low cell count flag: enough cells to score; Outcome: inactive
